These are yes or no findings as the source states them, for the method shown. Some results given as binding are weak or reduced against the parent protein; the word gives no strength.
Target: LGR4-ECD (UniProt Q9BXB1)
Experiment: competition of 8D2 uptake in A549 cells by soluble LGR4-ECD

Chains of the proteins cited; added tags and fusions are not shown. Residues count along the entry.
UniProt Q9BXB1, residues 25-544: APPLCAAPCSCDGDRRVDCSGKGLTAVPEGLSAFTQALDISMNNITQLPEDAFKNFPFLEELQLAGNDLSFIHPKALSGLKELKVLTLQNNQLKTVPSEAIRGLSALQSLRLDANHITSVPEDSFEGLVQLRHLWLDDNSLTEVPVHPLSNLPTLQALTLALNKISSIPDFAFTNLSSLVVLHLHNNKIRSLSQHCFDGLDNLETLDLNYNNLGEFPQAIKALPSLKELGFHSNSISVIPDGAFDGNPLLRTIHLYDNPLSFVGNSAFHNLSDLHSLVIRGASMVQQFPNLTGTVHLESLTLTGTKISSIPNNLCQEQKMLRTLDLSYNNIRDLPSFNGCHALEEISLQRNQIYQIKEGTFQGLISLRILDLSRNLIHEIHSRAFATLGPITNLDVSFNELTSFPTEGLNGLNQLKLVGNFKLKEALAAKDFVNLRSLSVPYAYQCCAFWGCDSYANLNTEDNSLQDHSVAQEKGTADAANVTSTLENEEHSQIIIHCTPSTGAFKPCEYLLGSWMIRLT

B1: anti-LGR4 monoclonal antibody 8D2 (antibody, V domains shown)
VH: QVQLQQSGAELVKPGASVNLSCKTSGYTFSTSYMSWFKQIPGQTIEWVGLIYVGAGGPTYNQKFKGKASLTVDTSSSTAYMDLSSLTAEDSAVYFCARVRGYAMDAWGQGTSVTVSS
VL: DIVLTQSPATLSVTPGESVSLSCRASQDISTSIHWYQQKSNESPRLLIKYASQSISGIPSRFSGGGSGTDFTLTINRVESEDFSVYYCQQSYSLPVTFGSGTKLELKR
notes: also called mAb 8D2; LGR4-mAb-8D2
- binding: binds

Reference: patent US20180369403A1 (University of Texas, published 2018)
